# For at least one compound, name, drawing or mass did not settle the structure.
# Tests used:
# rat platelet = test: Partial agonistic activity (activity to induce the shape change in rat platelet); format: cell-based; conditions: even up to 1000 nM, rat washed platelets
# Protocol: From the abdominal artery of a male rat (Sprague-Dowley, 7 weeks old) was collected 10 ml of blood with a plastic syringe containing 1.5 ml of ACD (85 mM of sodium citrate, 70 mM of citric acid, 110 mM of glucose) and 20 μg of prostaglandin E1. The blood was placed in a plastic test tube, shaken moderately turning and centrifuged for 10 minutes at 160×g to give platelet rich plasma (PRP). To the prepared PRP was added apyrase (25 μg/ml) and the mixture was layered on 40% bovine serum albumin. The resulting mixture was centrifuged at 1200×g for 25 minutes. The suspension of the prepared platelet pellets in a small amount of a buffer (137 mM of NaCl, 2.7 mM of KCl, 1.0 mM MgCl2, 3.8 mM of NaH2 PO4, 3.8 mM of Hepes, 5.6 mM of glucose, 0.035% of bovine serum albumin, pH 7.35) was applied on 10 ml of Sepharose 2B column and eluted with such a buffer to prepare washed platelets.
# The platelet aggregation reaction was measured by the aggregometer (NKK HEMA TRACER 1 MODEL PAT-6A.6M, Nikkou Bioscience).
# Furthermore, partial agonistic activity (activity to induce the shape change in rat platelet) was determined according to the method used for the reaction of platelet aggregation. To the washed platelets was added 0.1M CaCl2 aqueous solution and 1 minute later, the decrease in light transmission caused by the test compounds was determined to estimate the activity.
# mice = test: Respiration inhibitory activity on intravenous injection to mice (index of partial agonistic activity); format: in vivo; conditions: intravenously injected to mice
smiles,measurement,setting,value
"O=C(CCC/C=C\C[C@H]1[C@@H]2CC[C@@H](C2)[C@@H]1NS(=O)(=O)c1ccccc1)NO [Ia, (1R,2S,3S,4S)-(5Z)-7-(3-phenylsulfonyl-aminobicyclo[2.2.1]hept-2-yl)-5-heptenohydroxamic acid]",partial agonistic activity (shape change),rat platelet,no partial agonistic activity even up to 1000 nM
same,duration of effects as compared with known carboxylic acid derivatives,mice,longer lasting effects as compared with known carboxylic acid derivatives

# Reference: patent US5137914A, “Sulfonylamino substituted bicyclo [2.2.1]heptane hydroxamic acid derivatives useful as pharmaceuticals” (Shionogi & Co., Ltd., priority 1990, dated 1992)
